PubChem BioAssay AID1159578 – Peter MacCallum Cancer Centre | 2015
Purpose: 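Genome-wide hunt for genes controlling movement of lymphatic endothelial cells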 (primary screen). Cells: human lymphatic endothelial cells. Knock-down reagent: siRNA pool against human genes, 40 nM. Time to read-out: 48 h after transfection. Detection: 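High-content imaging of dye-stained cells in a scratch assay measures filled wound area and nuclei per well; duplicate means given as ratio to mock and robust z-score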. Reading the numbers: migration robust z-score: higher = faster migration into the scratch; migration relative to mock: higher = more scratch area covered than mock; nuclei per well: higher = more cells in the well. Rule for the call: 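Pools averaging fewer than 3300 nuclei are never called; remaining pools count as changed when migration robust z lies outside -2 to 2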. Calls: active = migration changed; inactive = no migration change, or too few cells.
The deposit covers about 18,000 reagents; this is an unselected part. Of all reagents, about 1,030 (5.7%) were called active. 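Inactive calls also include pools with fewer than 3300 nuclei, whose migration was not assessed.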 Raw values vary from plate to plate and are shown uncorrected. The numbers tell different reagents against one gene apart.

target gene	pool no.	migration robust z-score	migration class with cell-count check	migration relative to mock	nuclei per well, duplicate mean	call
CNNM4	1	0.46	migration z between -2 and 2; enough cells	1	6933	inactive
ELMO2	1	0.16	migration z between -2 and 2; enough cells	0.93	5200	inactive
PITPNM1	1	-0.34	migration z between -2 and 2; enough cells	0.74	6755	inactive
UBE2V1	1	2.39	migration z above 2; enough cells	1.26	6743	active
CMTM4	1	1.06	migration z between -2 and 2; enough cells	1.16	6366	inactive
SSBP4	1	-1.19	migration z between -2 and 2; enough cells	0.58	5002	inactive
CCDC122	1	0.14	migration z between -2 and 2; enough cells	0.92	5415	inactive
TUT7	1	0.6	migration z between -2 and 2; enough cells	1.04	6166	inactive
NAGS	1	0.12	migration z between -2 and 2; enough cells	0.92	5816	inactive
KRTAP21-1	1	-2.04	migration z below -2; enough cells	0.36	4732	active
FIGNL1	1	0.49	migration z between -2 and 2; enough cells	1.01	6440	inactive
CXCL17	1	0.35	migration z between -2 and 2; enough cells	0.98	6590	inactive
AMER3	1	-0.3	migration z between -2 and 2; enough cells	0.8	4176	inactive
AP5B1	1	0.84	migration z between -2 and 2; enough cells	1.1	5312	inactive
TRADD	1	0.34	migration z between -2 and 2; enough cells	0.87	5518	inactive
SP140L	1	0.23	migration z between -2 and 2; enough cells	0.94	6536	inactive
SLC41A3	1	0.52	migration z between -2 and 2; enough cells	0.9	4655	inactive
ATP7A	1	-1.53	migration z between -2 and 2; enough cells	0.51	4912	inactive
KRTAP21-2	1	0.94	migration z between -2 and 2; enough cells	1.13	5668	inactive
RNF213	1	0.8	migration z between -2 and 2; enough cells	0.96	6393	inactive
RNF213	2	0.95	migration z between -2 and 2; enough cells	1.13	6840	inactive
TUBA4A	1	-3.76	under 3300 nuclei; migration not judged	0.08	3174	inactive
SPOCD1	1	-0.34	migration z between -2 and 2; enough cells	0.8	6315	inactive
USP37	1	-0.83	migration z between -2 and 2; enough cells	0.64	5588	inactive
NCKAP5L	1	0.34	migration z between -2 and 2; enough cells	0.98	5690	inactive
SLC2A12	1	-0.6	migration z between -2 and 2; enough cells	0.69	5859	inactive
LOC401052 (retired record)	1	0.04	migration z between -2 and 2; enough cells	0.89	5685	inactive
VAMP4	1	-0.66	migration z between -2 and 2; enough cells	0.72	4975	inactive
SZRD1	1	-0.88	migration z between -2 and 2; enough cells	0.66	5867	inactive
BSCL2	1	-1.66	migration z between -2 and 2; enough cells	0.45	5652	inactive
NOC2L	1	0.36	migration z between -2 and 2; enough cells	0.97	5563	inactive
RTKN	1	-2.34	migration z below -2; enough cells	0.28	4184	active
GJC3	1	-2.35	migration z below -2; enough cells	0.28	4141	active
LMCD1	1	-0.92	migration z between -2 and 2; enough cells	0.64	4682	inactive
FAM162A	1	0.45	migration z between -2 and 2; enough cells	1.01	5268	inactive
ZNF30	1	0.96	migration z between -2 and 2; enough cells	1.14	6133	inactive
IFI35	1	1.54	migration z between -2 and 2; enough cells	1.28	6097	inactive
DPH2	1	-0.26	migration z between -2 and 2; enough cells	0.82	7160	inactive
MPV17L2	1	-1.09	migration z between -2 and 2; enough cells	0.6	6687	inactive
